Reference: PMC12075686, “Structural basis of phosphorylation-independent nuclear import of CIRBP by TNPO3” (Nature Communications, 2025)
Numbering of substitutions follows the chain as printed. In names and notes the source's numbering stands. These are yes or no findings as the source states them, for the method shown. Some results given as binding are weak or reduced against the parent protein; the word gives no strength.

T1: Transportin 3 (TNPO3), full-length wild type (human) (UniProt Q9Y5L0)
T1 sequence: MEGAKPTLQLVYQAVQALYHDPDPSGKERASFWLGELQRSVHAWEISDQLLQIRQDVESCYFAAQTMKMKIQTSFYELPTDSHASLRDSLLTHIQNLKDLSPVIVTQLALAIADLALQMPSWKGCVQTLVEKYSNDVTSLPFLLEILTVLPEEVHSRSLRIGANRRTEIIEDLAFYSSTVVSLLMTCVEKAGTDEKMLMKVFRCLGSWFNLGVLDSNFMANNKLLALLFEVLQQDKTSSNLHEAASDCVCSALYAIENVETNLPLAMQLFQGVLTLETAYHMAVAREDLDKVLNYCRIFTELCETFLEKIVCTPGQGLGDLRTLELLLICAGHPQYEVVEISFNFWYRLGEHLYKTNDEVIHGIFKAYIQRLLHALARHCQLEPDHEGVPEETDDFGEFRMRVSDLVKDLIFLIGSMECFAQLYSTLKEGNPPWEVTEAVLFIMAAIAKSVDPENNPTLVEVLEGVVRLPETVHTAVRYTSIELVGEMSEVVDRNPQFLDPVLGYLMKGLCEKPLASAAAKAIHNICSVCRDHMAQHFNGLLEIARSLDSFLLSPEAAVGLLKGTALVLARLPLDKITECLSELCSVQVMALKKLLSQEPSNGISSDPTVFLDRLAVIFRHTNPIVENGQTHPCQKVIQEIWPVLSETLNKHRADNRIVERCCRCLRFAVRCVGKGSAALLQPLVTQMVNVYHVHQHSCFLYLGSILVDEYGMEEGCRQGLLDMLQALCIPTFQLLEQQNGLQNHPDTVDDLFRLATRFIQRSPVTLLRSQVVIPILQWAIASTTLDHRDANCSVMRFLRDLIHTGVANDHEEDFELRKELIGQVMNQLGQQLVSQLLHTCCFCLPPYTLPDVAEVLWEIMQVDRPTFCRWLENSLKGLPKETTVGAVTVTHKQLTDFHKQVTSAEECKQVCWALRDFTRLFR

T2: Transportin 3 (TNPO3) C511A mutant (human) (UniProt Q9Y5L0)
T2 sequence: T1 sequence with C511A


Assays:
[1] = biological target: T1, Transportin 3 (TNPO3), full-length wild type (human); experiment: NMR titration; 1H NMR spectra of 50 µM peptide free and with a stoichiometric amount (50 µM) of TNPO3 WT; line broadening of peptide signals; both purified
[2] = biological target: T2, Transportin 3 (TNPO3) C511A mutant (human); experiment: ITC; 100 µM ligand in the syringe injected (28 x 10 µL) into 10 µM TNPO3 (WT or C511A) in the cell; 25 °C; 50 mM Tris-HCl pH 7.5, 150 mM NaCl, 2 mM TCEP, 0.04% NaN3; both purified

| binding [1] | Binder | binding [2] |
| --- | --- | --- |
| binds | YYDYEIERFWRGGQYENFRV (peptide, UniProt Q86VM9 371-390) [ZCH18 (371-390) synthetic peptide] | – |
| – | GGSYADSYDSYATHNE [CIRBP (157-172) synthetic peptide, R161A] | no binding (tested: 100 μM ligand into 10 μM TNPO3) |
| – | GGSYRDSYDSAATHNE [CIRBP (157-172) synthetic peptide, Y167A] | binds weakly |
| – | GGSYRDSADSYATHNE [CIRBP (157-172) synthetic peptide, Y164A] | no binding (tested: 100 μM ligand into 10 μM TNPO3) |
